{"sequences": {"note": "Protein sequences, listed by entry. Tags and fused reporters are not part of them.", "UniProt P35222": "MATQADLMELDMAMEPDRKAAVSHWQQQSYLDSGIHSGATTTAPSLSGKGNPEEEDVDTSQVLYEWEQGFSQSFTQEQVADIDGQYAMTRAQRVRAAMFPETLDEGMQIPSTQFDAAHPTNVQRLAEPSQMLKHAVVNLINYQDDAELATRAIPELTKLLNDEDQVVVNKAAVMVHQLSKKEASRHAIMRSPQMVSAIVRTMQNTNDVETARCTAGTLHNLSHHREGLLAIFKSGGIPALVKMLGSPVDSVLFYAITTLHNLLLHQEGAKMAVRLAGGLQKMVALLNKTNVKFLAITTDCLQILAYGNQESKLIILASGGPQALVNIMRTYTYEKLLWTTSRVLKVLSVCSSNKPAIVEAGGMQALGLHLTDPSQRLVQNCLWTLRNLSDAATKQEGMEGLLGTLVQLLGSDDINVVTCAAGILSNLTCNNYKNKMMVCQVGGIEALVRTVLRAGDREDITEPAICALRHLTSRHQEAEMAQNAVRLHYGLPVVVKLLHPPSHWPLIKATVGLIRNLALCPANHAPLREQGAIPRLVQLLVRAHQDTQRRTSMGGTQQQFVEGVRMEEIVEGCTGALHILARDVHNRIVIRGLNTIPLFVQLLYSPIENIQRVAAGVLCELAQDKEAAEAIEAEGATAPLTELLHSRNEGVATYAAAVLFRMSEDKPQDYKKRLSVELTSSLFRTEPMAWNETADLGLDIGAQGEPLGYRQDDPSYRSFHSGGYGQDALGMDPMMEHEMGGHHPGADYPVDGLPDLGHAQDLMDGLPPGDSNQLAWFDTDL"}, "source": "paper PMC5833782", "binders": {"B1": {"name": "Transmembrane protein 170B (protein, UniProt Q5T4T1 1-132)", "chain": "MKAEGGDHSMINLSVQQVLSLWAHGTVLRNLTEMWYWIFLWALFSSLFVHGAAGVLMFVMLQRHRQGRVISVIAVSIGFLASVTGAMITSAAVAGIYRVAGKNMAPLEALVWGVGQTVLTLIISFSRILATL"}}, "molecular_target": "β-catenin (human (endogenous in MCF7)) (UniProt P35222)", "test": "co-IP; endogenous IP from MCF7 cell extracts with anti-β-catenin antibody or non-specific IgG and protein G-agarose beads, 4 °C overnight, immunoblotting; control cells and cells with stable TMEM170B knockdown", "note": "Results are given in words; binding and its absence hold for the method and conditions named. In cells and extracts the contact can be indirect. Some entries that bind do so weakly or less than the wild type."}
{"binder": "B1", "values": [{"measurement": "binding", "value": "binds"}]}
